Values quoted from earlier work as cited in patent publication US11679240B2, “Removable covers for drug eluting medical devices” (W. L. Gore & Associates, Inc., priority 2014, dated 2023).

solubility limit (neat DI-water, room temperature): about 0.4 μM
solubilized concentration of paclitaxel in solution (with hydroxypropyl-β-cyclodextrin at 60% (w/v in water)): approximately 4 mM
Structure (SMILES): CC(=O)O[C@H]1C(=O)[C@@]2(C)[C@H]([C@H](OC(=O)c3ccccc3)[C@]3(O)C[C@H](OC(=O)[C@H](O)[C@@H](NC(=O)c4ccccc4)c4ccccc4)C(C)=C1C3(C)C)[C@]1(OC(C)=O)CO[C@@H]1C[C@@H]2O [paclitaxel]
